Earlier results as cited in patent publication US4412986A, “Nifedipine-containing solid preparation composition” (Yamanouchi Pharmaceutical Co. Ltd., priority 1977, dated 1983).

COC(=O)C1=C(C)NC(C)=C(C(=O)OC)C1c1ccccc1[N+](=O)[O-] [nifedipine, 4-(2'-nitrophenyl)-2,6-dimethyl-3,5-dicarbomethoxy-1,4-dihydropyridine]
bioavailability by oral administration: low bioavailability
